The results in this text go back to paper PMC8629392.

By UniProt entry, the sequences of proteins in these tests, tags left out. Residues count along the entry.
UniProt O91087: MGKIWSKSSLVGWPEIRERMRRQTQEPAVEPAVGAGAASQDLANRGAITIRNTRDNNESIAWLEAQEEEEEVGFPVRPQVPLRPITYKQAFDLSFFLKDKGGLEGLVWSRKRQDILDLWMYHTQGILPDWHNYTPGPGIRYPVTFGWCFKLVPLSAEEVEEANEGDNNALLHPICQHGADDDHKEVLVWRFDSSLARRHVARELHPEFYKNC
UniProt P08631, residues 22-526: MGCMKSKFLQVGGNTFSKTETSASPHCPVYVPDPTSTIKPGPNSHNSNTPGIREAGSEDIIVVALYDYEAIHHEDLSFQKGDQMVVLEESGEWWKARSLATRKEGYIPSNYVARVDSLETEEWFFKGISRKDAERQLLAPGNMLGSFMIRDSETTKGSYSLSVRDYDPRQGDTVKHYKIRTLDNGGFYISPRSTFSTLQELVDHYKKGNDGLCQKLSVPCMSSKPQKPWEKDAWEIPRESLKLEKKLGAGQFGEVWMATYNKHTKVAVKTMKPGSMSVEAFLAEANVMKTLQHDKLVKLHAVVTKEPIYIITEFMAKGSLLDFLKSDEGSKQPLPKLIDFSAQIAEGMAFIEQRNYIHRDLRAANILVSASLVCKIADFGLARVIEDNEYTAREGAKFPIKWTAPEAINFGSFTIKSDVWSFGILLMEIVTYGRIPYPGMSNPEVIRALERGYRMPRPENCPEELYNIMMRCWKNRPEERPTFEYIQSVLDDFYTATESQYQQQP

No constants are given. Whether binding was seen depends on the method and setting. In cells and extracts the contact can be indirect.

In this experiment the target is HIV-1 N YBF30 Nef, wild type, Myc-tagged (HIV-1 group N, strain YBF30) (UniProt O91087). As to the kind of experiment: co-IP; HEK293 cells co-transfected with Myc-tagged Nef and biotin acceptor domain-tagged Hck-p59; lysates subjected to anti-Myc immunoprecipitation, Hck detected in the immune complexes by Western blotting with labeled streptavidin.

Turning to “Human Hck p59, wild type, with C-terminal biotin acceptor domain (from UniProt P08631-2 1-505) (enzyme)”, the binding entry is “no binding”.
